Measured values from the supplement of paper PMC12819154, “High-throughput peptide-centric local stability assay extends protein–ligand identification to membrane proteins, tissues and bacteria” (Nature Structural & Molecular Biology, 2025).
The list shows a part of the results. Small differences around the control level are noise.

By UniProt entry, the sequences of proteins in these tests, tags left out. Where a name states a change or a piece, a line headed by the entry shows the natural chain unless it says otherwise.
UniProt P29452: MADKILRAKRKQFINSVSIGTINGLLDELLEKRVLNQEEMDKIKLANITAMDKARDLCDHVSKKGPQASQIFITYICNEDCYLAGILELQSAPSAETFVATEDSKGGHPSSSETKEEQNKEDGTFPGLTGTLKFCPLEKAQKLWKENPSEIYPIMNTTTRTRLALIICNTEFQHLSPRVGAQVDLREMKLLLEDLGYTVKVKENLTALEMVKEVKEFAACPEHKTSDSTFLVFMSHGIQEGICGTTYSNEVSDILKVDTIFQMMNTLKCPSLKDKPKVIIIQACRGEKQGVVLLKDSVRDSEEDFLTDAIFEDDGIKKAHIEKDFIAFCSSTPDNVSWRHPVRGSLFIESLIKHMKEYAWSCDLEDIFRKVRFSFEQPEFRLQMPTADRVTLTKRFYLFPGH
UniProt P19785, whole entry: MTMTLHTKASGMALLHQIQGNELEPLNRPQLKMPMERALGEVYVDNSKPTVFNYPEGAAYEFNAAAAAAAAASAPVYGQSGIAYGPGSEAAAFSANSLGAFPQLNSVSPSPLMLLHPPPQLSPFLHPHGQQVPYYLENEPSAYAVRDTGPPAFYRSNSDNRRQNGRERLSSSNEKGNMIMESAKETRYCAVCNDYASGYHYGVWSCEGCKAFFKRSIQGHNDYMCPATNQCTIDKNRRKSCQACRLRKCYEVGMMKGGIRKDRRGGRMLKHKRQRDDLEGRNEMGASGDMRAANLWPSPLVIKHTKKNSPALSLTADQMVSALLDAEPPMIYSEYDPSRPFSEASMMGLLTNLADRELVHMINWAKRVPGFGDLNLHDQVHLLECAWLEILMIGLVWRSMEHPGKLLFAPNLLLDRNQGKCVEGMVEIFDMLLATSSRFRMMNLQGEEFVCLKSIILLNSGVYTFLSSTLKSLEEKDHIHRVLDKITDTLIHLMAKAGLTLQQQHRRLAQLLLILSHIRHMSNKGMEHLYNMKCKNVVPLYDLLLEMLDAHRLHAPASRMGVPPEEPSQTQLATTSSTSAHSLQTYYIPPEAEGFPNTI
UniProt P21300: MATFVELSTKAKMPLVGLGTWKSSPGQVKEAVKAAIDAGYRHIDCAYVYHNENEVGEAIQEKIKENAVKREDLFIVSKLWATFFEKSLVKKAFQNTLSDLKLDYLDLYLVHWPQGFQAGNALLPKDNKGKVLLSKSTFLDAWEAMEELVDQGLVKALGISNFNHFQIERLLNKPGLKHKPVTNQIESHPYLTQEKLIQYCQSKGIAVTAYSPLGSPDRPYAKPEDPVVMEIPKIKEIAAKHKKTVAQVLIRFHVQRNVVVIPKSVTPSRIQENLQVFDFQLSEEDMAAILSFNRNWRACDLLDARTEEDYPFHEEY
UniProt P26323: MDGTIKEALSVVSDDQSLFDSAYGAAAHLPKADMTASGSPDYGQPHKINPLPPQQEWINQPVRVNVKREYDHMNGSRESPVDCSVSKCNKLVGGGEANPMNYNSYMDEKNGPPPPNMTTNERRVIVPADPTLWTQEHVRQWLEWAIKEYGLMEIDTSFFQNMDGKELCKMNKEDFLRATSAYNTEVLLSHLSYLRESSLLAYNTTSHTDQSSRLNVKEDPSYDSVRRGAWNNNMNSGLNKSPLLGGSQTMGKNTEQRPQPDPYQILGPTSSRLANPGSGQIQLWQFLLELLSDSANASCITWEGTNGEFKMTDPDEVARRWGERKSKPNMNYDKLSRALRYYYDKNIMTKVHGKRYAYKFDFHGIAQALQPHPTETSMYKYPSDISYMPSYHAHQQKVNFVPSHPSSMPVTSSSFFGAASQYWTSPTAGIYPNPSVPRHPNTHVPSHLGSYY
UniProt P28828, whole entry: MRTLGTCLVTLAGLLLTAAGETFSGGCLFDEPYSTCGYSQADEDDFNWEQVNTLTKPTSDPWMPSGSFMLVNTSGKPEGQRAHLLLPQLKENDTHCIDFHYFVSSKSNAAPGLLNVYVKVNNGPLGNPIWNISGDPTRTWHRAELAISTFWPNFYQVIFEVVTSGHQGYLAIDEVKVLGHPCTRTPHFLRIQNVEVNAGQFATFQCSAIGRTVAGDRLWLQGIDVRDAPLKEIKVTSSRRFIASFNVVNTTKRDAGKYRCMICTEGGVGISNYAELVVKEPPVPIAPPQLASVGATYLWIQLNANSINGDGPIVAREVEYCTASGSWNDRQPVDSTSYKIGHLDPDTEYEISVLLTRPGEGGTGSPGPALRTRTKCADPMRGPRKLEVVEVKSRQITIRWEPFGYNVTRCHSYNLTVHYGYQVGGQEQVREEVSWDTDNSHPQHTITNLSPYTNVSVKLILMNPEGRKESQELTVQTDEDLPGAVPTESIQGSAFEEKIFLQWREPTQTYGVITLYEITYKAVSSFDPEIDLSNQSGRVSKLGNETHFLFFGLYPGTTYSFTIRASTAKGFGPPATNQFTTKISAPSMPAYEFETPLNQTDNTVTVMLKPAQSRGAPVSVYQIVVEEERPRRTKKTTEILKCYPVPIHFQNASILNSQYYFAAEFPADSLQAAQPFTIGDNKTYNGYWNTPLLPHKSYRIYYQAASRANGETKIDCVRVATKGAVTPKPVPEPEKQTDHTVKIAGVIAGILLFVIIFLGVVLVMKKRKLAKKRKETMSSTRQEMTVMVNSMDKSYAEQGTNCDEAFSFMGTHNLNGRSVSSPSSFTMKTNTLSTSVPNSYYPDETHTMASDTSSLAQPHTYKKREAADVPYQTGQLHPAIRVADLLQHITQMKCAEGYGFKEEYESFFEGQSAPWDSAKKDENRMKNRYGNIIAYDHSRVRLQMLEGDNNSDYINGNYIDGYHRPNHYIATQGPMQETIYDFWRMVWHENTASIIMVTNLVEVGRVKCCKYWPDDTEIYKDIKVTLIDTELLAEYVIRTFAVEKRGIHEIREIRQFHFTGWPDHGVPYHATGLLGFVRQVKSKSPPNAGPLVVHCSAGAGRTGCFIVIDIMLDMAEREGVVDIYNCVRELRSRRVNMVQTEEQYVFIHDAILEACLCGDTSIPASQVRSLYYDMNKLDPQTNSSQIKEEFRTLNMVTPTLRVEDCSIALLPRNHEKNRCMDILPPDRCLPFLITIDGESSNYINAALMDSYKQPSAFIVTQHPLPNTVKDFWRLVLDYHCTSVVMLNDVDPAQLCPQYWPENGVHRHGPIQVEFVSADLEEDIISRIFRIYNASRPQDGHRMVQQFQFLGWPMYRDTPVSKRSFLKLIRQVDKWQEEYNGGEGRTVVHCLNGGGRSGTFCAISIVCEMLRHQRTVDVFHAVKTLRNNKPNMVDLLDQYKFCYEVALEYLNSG
UniProt P26150: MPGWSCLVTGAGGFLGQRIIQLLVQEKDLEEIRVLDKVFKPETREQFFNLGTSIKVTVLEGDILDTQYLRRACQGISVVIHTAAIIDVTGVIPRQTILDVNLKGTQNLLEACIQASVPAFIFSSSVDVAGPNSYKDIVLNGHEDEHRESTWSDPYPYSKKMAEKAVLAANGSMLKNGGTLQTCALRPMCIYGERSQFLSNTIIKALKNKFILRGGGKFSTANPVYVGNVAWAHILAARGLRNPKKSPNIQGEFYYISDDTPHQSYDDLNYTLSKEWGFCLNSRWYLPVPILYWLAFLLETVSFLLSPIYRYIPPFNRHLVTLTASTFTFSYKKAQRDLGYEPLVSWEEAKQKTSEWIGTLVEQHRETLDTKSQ
UniProt P19258: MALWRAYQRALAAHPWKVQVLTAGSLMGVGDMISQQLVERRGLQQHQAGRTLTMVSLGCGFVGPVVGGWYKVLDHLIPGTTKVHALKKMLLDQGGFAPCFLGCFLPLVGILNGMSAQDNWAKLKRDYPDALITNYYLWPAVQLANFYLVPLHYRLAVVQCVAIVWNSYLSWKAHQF
UniProt P35293: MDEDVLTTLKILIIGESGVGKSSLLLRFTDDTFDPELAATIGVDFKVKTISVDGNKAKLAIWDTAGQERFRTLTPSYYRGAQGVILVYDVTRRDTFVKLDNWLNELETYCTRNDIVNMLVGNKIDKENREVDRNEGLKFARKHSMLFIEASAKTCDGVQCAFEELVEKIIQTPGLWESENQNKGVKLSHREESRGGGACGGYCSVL

Compound: CN[C@@H]1C[C@H]2O[C@@](C)([C@@H]1OC)n1c3ccccc3c3c4c(c5c6ccccc6n2c5c31)C(=O)NC4 [staurosporine]
Assay: log2 fold change of tryptic peptide abundance, ligand vs vehicle (limited proteolysis) (log2 ratio); higher = more trypsin-susceptible (destabilized)
Details: ligand concentration: 20 uM; sample: mouse liver crude lysate; replicate design: treated separately

Row | Target | log2 fold change
1 | UniProt P29452 (peptide sequence: LQMPTADRVTLTK, peptide start residue: 382) | -0.226
2 | UniProt P19785 (peptide sequence: AANLWPSPLVIK, peptide start residue: 292) | 0.215
3 | UniProt P21300 (peptide sequence: LLNKPGLK, peptide start residue: 170) | -0.196
4 | UniProt P26323 (peptide sequence: ESPVDCSVSK, peptide start residue: 78) | -0.288
5 | UniProt P28828 (peptide sequence: EAADVPYQTGQLHPAIR, peptide start residue: 865) | 0.231
6 | UniProt P26150 (peptide sequence: VLDKVFKPETR, peptide start residue: 34) | 0.155
7 | UniProt P19258 (peptide sequence: ALAAHPWK, peptide start residue: 10) | -0.0479
8 | UniProt P35293 (peptide sequence: EVDRNEGLK, peptide start residue: 130) | -0.123

Individual results from above:
log2 fold change, UniProt P26323 (peptide sequence: ESPVDCSVSK, peptide start residue: 78) reads -0.288
log2 fold change, UniProt P19785 (peptide sequence: AANLWPSPLVIK, peptide start residue: 292) reads 0.215
